# Data: patent publication US7276536B2, “Method for increasing the bioavailability of the active form of S-[2-([[1-(2-ethylbutyl)cyclohexyl]carbonyl]amino) phenyl] 2-methylpropanethioate” (Japan Tobacco Inc., priority 2003, dated 2007)
# Read-outs that look alike come from different tables or passages of the source. For part of these data: The name of at least one read-out is uncertain. For part of these data: At least one structure is not confirmed: it was looked up by name or label, or the drawing left a doubt.
# How the values were obtained:
# [1] = humans (de Grooth et al.); cited from earlier work
# [2] = cited from earlier work
# atherosclerosis = details: rabbits (Okamoto et al.); cited from earlier work
# [3] = Food-effect pharmacokinetic study, 600 mg oral Compound I, fed vs fasted (Example 4); type: in vivo, human (Japanese male volunteers)
# Description: Administration, dosing, and sampling schedules were commensurate with those described in Example 1. […] Patients were administered two tablets of 300 mg each. The tablets were prepared as described in Example 1.
smiles,measurement,setting,value
"CCC(CC)CC1(C(=O)Nc2ccccc2SC(=O)C(C)C)CCCCC1 [Compound I, S-[2-([[1-(2-ethylbutyl)cyclohexyl]carbonyl]amino)phenyl]2-methylpropanethioate]",effect on LDL cholesterol,[1],decrease LDL cholesterol
same,effect on plasma HDL cholesterol,[1],increase plasma HDL cholesterol
same,effect on LDL cholesterol,[2]; rabbits (Okamoto et al.),decrease LDL cholesterol
same,effect on plasma HDL cholesterol,[2]; rabbits (Shinkai et al.; Kobayashi et al.; Okamoto et al.),increase plasma HDL cholesterol
same,effect on progression of atherosclerosis,atherosclerosis,inhibits the progression of atherosclerosis
same,Cmax times higher with food as compared to without food,[3],about 3 times
